# PubChem BioAssay AID1259308 – NCATS | 2017
# Screen: 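Genes whose loss raises luciferase production in HEK293 cells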 (primary screen)
# Cells: human HEK293 embryonic kidney cells stably expressing firefly luciferase (HEK-CMV-Luc2-Hygro)
# Reagents: single siRNA against human genes, 0.8 pmol siRNA per well
# Time to read-out: 72 h
# Read-out: 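Luciferase light (ONE-Glo) measured on one replicate plate set and viability (CellTiter-Glo) on the other, scaled to a negative control siRNA, with robust z-scores and luciferase per cell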
# Reading the numbers: total luciferase, z-score and total luciferase, % of control: higher = more reporter protein produced; luciferase per cell, z-score: higher = more reporter output per viable cell; viable cells, % of control: higher = more viable cells
# Hit rule: 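An siRNA counts as active if its total luciferase robust z-score exceeds 3; genes with two or more such siRNAs out of three were retested with fresh siRNAs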
# Meaning of the calls: active = raised luciferase; inactive = no rise
# Shown is an unselected part of about 59,000 reagents tested. Over the whole deposit, about 1,510 (2.6%) were called active. 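Calls use total luciferase alone and ignore viability, so some active siRNAs may act by altering cell number.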 The numbers tell different reagents against one gene apart.
gene symbol,reagent,"total luciferase, z-score","total luciferase, % of control","luciferase per cell, z-score","viable cells, % of control",Outcome
CFAP141,1,-1.74,47.3,-1.85,85.9,inactive
CFAP141,2,-0.618,69.6,-0.2,82,inactive
CFAP141,3,-0.559,70.8,-0.0379,79.9,inactive
NDUFAF7,1,1.77,117,0.86,104,inactive
NDUFAF7,2,2.6,134,3.03,67.3,inactive
NDUFAF7,3,-0.0533,80.8,0.587,77.4,inactive
SLC20A1,1,-0.41,73.7,0.322,75.7,inactive
SLC20A1,2,-1.63,49.4,-1.16,75,inactive
SLC20A1,3,0.547,92.8,0.321,95.3,inactive
ZNF614,1,0.858,99,0.49,97.2,inactive
ZNF614,2,-0.0315,81.3,-0.0235,91.4,inactive
ZNF614,3,-0.211,77.7,0.386,78.4,inactive
ANP32CP,1,-0.263,76.7,-0.719,104,inactive
ANP32CP,2,0.81,98,0.461,97,inactive
ANP32CP,3,-0.574,70.5,-0.239,83.9,inactive
SAR1A,1,0.682,95.5,3.94,37.8,inactive
SAR1A,2,-3.22,17.9,-4.68,68.8,inactive
SAR1A,3,0.211,86.1,-0.161,100,inactive
GPX1,1,-0.149,78.9,-0.318,95.9,inactive
GPX1,2,-0.183,78.2,-0.845,109,inactive
GPX1,3,-1.43,53.4,-1.29,83.8,inactive
ANKRD13B,1,-0.364,74.6,0.076,81.8,inactive
ANKRD13B,2,0.99,102,0.378,103,inactive
ANKRD13B,3,0.462,91.1,0.869,81,inactive
CLLU1,1,-0.791,66.2,-0.0976,75.9,inactive
CLLU1,2,0.444,90.7,0.514,88.5,inactive
CLLU1,3,0.999,102,3.03,51.2,inactive
L3MBTL3,1,1.15,105,0.705,97.3,inactive
L3MBTL3,2,-0.442,73.1,-0.839,102,inactive
L3MBTL3,3,0.0202,82.3,-0.476,104,inactive

Just “total luciferase, z-score”, for 7 of the entries above:
NDUFAF7 #2 = 2.6
NDUFAF7 #3 = -0.0533
SLC20A1 #1 = -0.41
SLC20A1 #2 = -1.63
SLC20A1 #3 = 0.547
ZNF614 #1 = 0.858
ZNF614 #2 = -0.0315

Additional reagents:
gene symbol,reagent,"total luciferase, z-score","total luciferase, % of control","luciferase per cell, z-score","viable cells, % of control",Outcome
SPINK6,1,-0.823,65.5,0.217,69.1,inactive
SPINK6,2,-0.0248,81.4,-0.373,100,inactive
SPINK6,3,-0.768,66.6,-0.885,94,inactive
LYPD2,1,5.21,186,3.36,85.6,active
LYPD2,2,0.605,93.9,-0.527,121,inactive
LYPD2,3,2.41,130,1.56,96.2,inactive
C4orf51,1,0.35,88.8,0.122,96.1,inactive
C4orf51,2,-0.23,77.3,-0.621,102,inactive
C4orf51,3,-0.292,76.1,-0.811,105,inactive
SH3GL3,1,0.392,89.7,-0.0323,101,inactive
SH3GL3,2,0.197,85.8,0.0614,94.4,inactive
SH3GL3,3,-1.12,59.6,-0.209,70.4,inactive
PHF11,1,3.44,150,2.12,96.1,active
PHF11,2,-0.000798,81.9,0.181,87.2,inactive
PHF11,3,-0.107,79.8,-0.162,93,inactive
NDUFV3,1,-0.712,67.7,0.163,72.5,inactive
NDUFV3,2,-0.543,71.1,-0.657,94.4,inactive
NDUFV3,3,-0.468,72.6,-0.402,90.2,inactive
SPACA3,1,2.66,135,2.39,80.2,inactive
SPACA3,2,-0.0213,81.5,-0.239,96.9,inactive
SPACA3,3,-0.415,73.6,0.64,69.5,inactive
RNASEH1,1,0.21,86.1,0.427,85.9,inactive
RNASEH1,2,-0.272,76.5,-0.78,105,inactive
RNASEH1,3,1.53,112,2.13,71.7,inactive
MAT2A,1,-0.201,77.9,0.931,68.1,inactive
MAT2A,2,-0.0605,80.7,0.00351,90.1,inactive
MAT2A,3,5.03,182,3.77,75.3,active
